No constants are given. Whether binding was seen depends on the method and setting. Binding seen in cells or lysates may run through a third protein. These calls come from enrichment with a bait or labelling near it, and not all partners need be listed. For some assays here: Sequences can lack the tags named with a protein.
B1: Set1 (C. deneoformans, endogenous) (protein, UniProt P0CO26 1-1483)
chain: MAPHEKGVNPSESPSGSLKKAPPSGPKALRGFASPSAFRNADIGNGLLQHRGEDERISFAFPRKGKESLDRNGERPAPMSLESRLGPPVSRFNRPVGGDSLERGNGKGGWDNRDERTSASSSSIHRINKEKIRPRSDFIESSANLYSEDDRNRDRGRYHERDRSRGTNGDRGGGEGHSHREPGRGKEHQNGQGRDRSLYRDHSRERESSRDERDRYSEEYKHQRSKARFSPSPSPERSRLKSSLGRHRSPVSVSSSSSSSARSPPPVQNREPLRYNGSQSKNGEKELSNGLLENSISRSGVSIAVPRKLETKQLVRPSPPHVNLKSTIQDNPSPPTGKYPPSPPSLDILSKPSCNREPLPDQRPPTPPLPENSSPTSPSLESSRFDQNQHLLPDELPLPPLSISFPQKPVSSSSLSRLSSLSAALSRPNPLDKDGTSMPPSFHFREISTRHQRLSPPNNAENQLPETSIIPPPPSETVPEPPWIRPPYIPPPCTKHRPGIGNFFITNLREKVEDKSGKEEKRVDGMEGGKVVQVTDPRLSMTEEQRGRGRGSSKQRAAFYELTYEWDLYSVTPKPPSPPTAVLITGLGPLTTVDQITKFLRPHGRIKEIDSKVDRKTGMQLGICWVKFEGPPLGRPGTAHDVASMAVKVCDGKKISMGGERIRVVLDGRGKRAEQAVKEEMERRYPPKKPSALPSDMKVTPLSGTAMATTSRPPNAPNASTPLIDKQTFDTSAKAPIIRPGVLKPLGQKMYHRPSAPPLVFNNHRFRDESFLNRPFNAGAGMISQQQMGYKILPGKPVQQLASSFTSAPFVRHPRERREDSWTNERGRRLKGESSTRHWRARSLSRSSYSSYSSYSSYSEESEEERPRHPTKVPYPQRKRLATGPSKEDEYKMEDVREAIRENGHPCVFIDAKSLPAAREYESYLRDHFKAFRPTEIIHSHLGWYILFADDTTAYRVQRVLDTTAVQGHRLSLVVHTSSGPRAQTDASEPVTGGVGESKKGNWRYLTITKKSRPMPAVKKSGKSATIRRKVYSPSVSGSDDDDEQVPVMAQNRKRAPSYASSTSPLSEDDRPFARSVQREERDIDKEGKFSLIGKKEDVVSVKAAKGPKSKTIRVDSDEVEENQGVPLASIGEVTKAEGKQDDSTVVKLETLLSESISELTKGKKRPTKAKGGKATKKVRLDQEADDAATKIQIDEDIVPQPPKKKKVVKTEVDKLLASGVLMDEEDAYWLGRVLAAQEDGLEPIWSDGEEDLVDEGHPLFHKSGAWRAEGWKKVAQVQKSRYLPQRNRAVVNSEDVGGITTGRTARLAGRDQHRQTAAVAANNTVESDLFAFNQLRIRKKQLRFARSAIEGYGLYAMETIHAGEMVCEYVGDLVRATVADVREQRYLKQGIGSSYLFRIDNDIVCDATFKGSVSRLINHSCDPSANAKIIKVNGQSKIVIYAERTLYPGEEILYDYKFPLESDPALRVPCLCGAATCRGWLN

Experiments:
Test in all cases: affinity purification with mass spectrometry; whole-cell extracts of C. deneoformans strains expressing a FLAG-tagged bait, grown overnight in liquid YPD at 30 °C; incubated with FLAG-trap (Sigma); eluate on SDS-PAGE, digested, analysed by MS
[1] = target: T1, FLAG-tagged Set1 (C. deneoformans) (C. deneoformans) (UniProt P0CO26)
T1 sequence: B1 chain

[2] = target: FLAG-tagged Swd1 (C. deneoformans) (C. deneoformans)
[3] = target: FLAG-tagged Swd3 (C. deneoformans) (C. deneoformans)
[4] = target: FLAG-tagged Bre2 (C. deneoformans) (C. deneoformans)

Molecule | binding [1] | further results
Bre2 (C. deneoformans, endogenous) | binds | 
Spp101 (C. deneoformans, endogenous) | binds | 
Swd1 (C. deneoformans, endogenous) | binds | 
Swd2 (C. deneoformans, endogenous) | binds | 
Swd3 (C. deneoformans, endogenous) | binds | 
B1 |  | binding [2]: binds; binding [3]: binds; binding [4]: binds

Source: PMC10301970
